# The campaign covered roughly 300,000 compounds. About 3,700 (1.2%) were called active. Inconclusive results, whose numbers are uncertain, are shown with a selection of clear calls. Calls come from the whole dose curve; tested in HEK293 cells. Potencies beside an inconclusive call are fits to weak or partial responses and may not hold up.
# Assay: qHTS for Inhibitors of binding or entry into cells for Lassa Virus; note: nearly all actives have a fitted effect of over 50% in size
# Settings: Lassa virus pseudotype entry inhibition, cell reporter; activity change, negative = inhibition: at 37.9 µM (top of the series) unless noted
# % is set by controls: 0 for no effect and ±100 for the full control effect; potency is the fitted concentration of half-maximal effect.
Structure (SMILES),Potency,"activity change, negative = inhibition"
Cc1cn2c(=O)cc(COC(=O)c3ccc(NC(=O)c4ccc(F)cc4)cc3)nc2s1,inactive,
COc1ccc(NC(=O)CN2C(=O)NC(C)(c3ccccc3)C2=O)c(OC)c1 (configuration not stated),"inconclusive: 5.62 µM [inhibitor, single point]",
Cc1cccc(-c2nnc(-c3cccc(NC(=O)Cc4cccs4)c3)o2)c1,inactive,
CCn1cc(CN2CCc3c([nH]c4ccccc34)C2c2cccc(OC)c2OC)c(C)n1 (configuration not stated),inactive,
C/C=C(/C(=C/C)c1ccc(O)cc1)c1ccc(O)cc1,active: 25.9 µM,
CSC[C@H](NC(=O)COc1cc2c(c3oc(=O)c(C)c(C)c13)CCC(C)(C)O2)C(=O)O,"inconclusive: 22.4 µM [activator, single point]",
COc1ccc(N/C=C(\[N+](=O)[O-])S(=O)(=O)c2ccccc2)cc1,"inconclusive: 6.31 µM [activator, partial curve, poor fit]",
O=[N+]([O-])c1cccc(C2CC(c3ccccc3)=NN2c2ccccc2)c1 (configuration not stated),inactive,
COCCCNC(=O)c1cc(-c2cccnc2)nc2ccc(S(=O)(=O)N3CCCCCC3)cc12,"inconclusive: 31.6 µM [activator, single point]",
O=C(Cn1cc(C(=O)C2CCCCC2)c2ccccc21)Nc1ccccc1Cl,inactive,
O=C(COc1ccc(Cl)cc1Cl)NCc1ccco1,"inconclusive: 35.5 µM [inhibitor, single point]",
CCC(C(=O)N1CCN(S(C)(=O)=O)CC1)c1ccccc1 (configuration not stated),"inconclusive: 23.1 µM [activator, single point]",
COc1ccc(CCN2C(=O)CSC2=Nc2ccc(C(C)C)cc2)cc1OC,active: 1.41 µM,
COc1ccc(CNC(=S)N/N=C/c2ccc(OC)c(OC)c2)cc1,"inconclusive: 0.794 µM [inhibitor, full curve]",
Cc1cc(NC(=O)CCC(=O)N(CC(=O)NC2CCCC2)Cc2cccs2)no1,"inconclusive: 7.08 µM [inhibitor, partial curve, poor fit]",
O=C(NCc1ccc(Cl)cc1)N1CCN(S(=O)(=O)c2ccccc2)CC1,"inconclusive: 35.5 µM [inhibitor, partial curve, poor fit]",
Cc1cccc(-c2cc3c(N=O)c4ccccc4c-3n[nH]2)c1,"inconclusive: 7.94 µM [inhibitor, partial curve, poor fit]",
COc1ccc(/C=N\NC(=O)c2ccccc2Cl)cc1COc1c(F)c(F)c(F)c(F)c1F,"inconclusive: 35.5 µM [inhibitor, single point]",
Cc1cccc(/C=C/c2nc3ccccc3c(=O)[nH]2)c1,active: 3.55 µM,
O=C(Nc1ncccc1O)c1ccc(S(=O)(=O)N2CCCC2)cc1,inactive,
O=C(/C=C/c1ccc(Cl)cc1)NC1CCS(=O)(=O)C1 (configuration not stated),inactive,
O=C(NCc1ccc(F)cc1Cl)c1cc(=O)[nH]c2ccc(S(=O)(=O)N3CCCCC3)cc12,inactive,
Cc1c(C(=O)N2CCC(C)CC2)sc2ncnc(N(C)c3ccccc3)c12,inactive,

Structure (SMILES),Potency,"activity change, negative = inhibition"
COC(=O)c1ccc(NN=Nc2ccc(C)cc2)cc1,"inconclusive: 7.08 µM [inhibitor, partial curve, poor fit]",
CC(C)CC(NC(N)=O)C(=O)NCCc1ccc(Cl)cc1 (configuration not stated),,inconclusive: 0.876% [activator]
COc1ccc(NC(=O)CCC2CCCCC2)cc1S(=O)(=O)N1CCCCC1,"inconclusive: 11.2 µM [inhibitor, partial curve, poor fit]",
CCCOc1ccc(CCCN=C(N)N)cc1Cl,inactive,
COc1ccccc1C1C=C(c2ccc(Cl)cc2)Nc2nc(N3C(=O)CCC3=O)nn21 (configuration not stated),"inconclusive: 29.1 µM [activator, single point]",
CC(C)C1C(=O)N(Cc2cn(CC3CCCCC3)nn2)CCS(=O)(=O)N1Cc1ccc(-c2ccc(F)cc2)cc1 (configuration not stated),"inconclusive: 11.2 µM [inhibitor, full curve, poor fit]",
O=C(CN1C(=O)CS/C1=C\c1nc(-c2ccc(Cl)cc2)cs1)Nc1cccnc1Cl,"inconclusive: 29.1 µM [inhibitor, single point]",
Cc1cccc2c1=NC(=O)/C(=C/c1c(O)[nH]c(=O)[nH]c1=O)C=2,inactive,
COc1ccc(-c2cc3cc(OC)c(OC)cc3c(C)n2)cc1,inactive,
COc1ccc2nc(N(Cc3ccccc3)C(=O)CCNC(C)=O)sc2c1,"inconclusive: 35.5 µM [inhibitor, single point]",
CCCCCCN1C[C@H](n2cc(-c3ccc(F)cc3)nn2)[C@@H](O)C[C@H]1c1ccc(C)cc1,"inconclusive: 0.0158 µM [inhibitor, full curve, poor fit]",
Cc1ccc(C)c(S(=O)(=O)c2c(N)n(/N=C/c3ccco3)c3nc4ccccc4nc23)c1,"inconclusive: 2.91 µM [inhibitor, partial curve]",
CCCC1COC(Cn2cncn2)(c2ccc(Cl)cc2Cl)O1 (configuration not stated),"inconclusive: 25.9 µM [inhibitor, single point]",
O=C(NC1CCCCC1)C(c1ccncc1)N(Cc1ccccc1)C(=O)c1ccc(-c2ccccc2)[nH]1 (configuration not stated),"inconclusive: 9.2 µM [inhibitor, partial curve, poor fit]",
Fc1ccccc1/C=N/NC(=S)Nc1ccc(Cl)cc1Cl,"inconclusive: 0.282 µM [inhibitor, full curve, poor fit]",
CC(=O)c1cccc(NC(=O)C2CCN(c3ncnc4c3nc3n4CCCCC3)CC2)c1,"inconclusive: 25.1 µM [activator, single point]",
COc1ccc(C(C(=O)NC2CCCCC2)N(C(=O)CCl)c2ccc(C)cc2)cc1 (configuration not stated),"inconclusive: 1.41 µM [inhibitor, full curve]",
CCOC(=O)c1ccc(CSc2nncn2N)o1,"inconclusive: 4.61 µM [activator, full curve, poor fit]",
CCCCNC(=O)c1cc2cccc([N+](=O)[O-])c2[nH]1,"inconclusive: 35.5 µM [inhibitor, single point]",
CCc1ccc2oc(C(=O)N(Cc3ccc(N(C)C)cc3)Cc3ccco3)c(C)c2c1,"inconclusive: 2.82 µM [inhibitor, full curve]",
C/C(=N\Nc1ccc(S(=O)(=O)N2CCOCC2)cc1[N+](=O)[O-])C(C)C,"inconclusive: 12.6 µM [inhibitor, single point]",
OC1(c2ccc(Cl)cc2)CCN(Cc2c[nH]c3ccccc23)CC1,"inconclusive: 29.1 µM [inhibitor, single point]",
O=C1C(=O)N(CCOCCO)C(c2ccccn2)/C1=C(\O)c1ccccc1 (configuration not stated),"inconclusive: 1 µM [activator, single point]",

Structure (SMILES),Potency,"activity change, negative = inhibition"
Fc1ccc(/C=C2\CCCC3=C2Nc2ncnn2C3c2ccc(F)cc2)cc1 (configuration not stated),"inconclusive: 10 µM [inhibitor, partial curve, poor fit]",
O=c1c2ccccc2n2c(=S)[nH]nc2n1-c1ccccc1,"inconclusive: 2.82 µM [inhibitor, partial curve, poor fit]",
COc1ccc2c(C)c(CC(=O)NCCc3ccc(Cl)cc3)c(=O)oc2c1C,inactive,
Cc1cccc(N(C(=O)c2snc(C(N)=O)c2N)C(C(=O)NCC2CCCO2)c2cccs2)c1 (configuration not stated),"inconclusive: 16.4 µM [inhibitor, single point]",
Clc1ccc(C[n+]2csc3ccccc32)cc1,inactive,
CCOC(=O)c1cccc(NC(=O)c2ncoc2-c2ccco2)c1,inactive,
O=C(CSc1ccccc1Cl)N1CCC(c2nc3ccccc3s2)CC1,inactive,
CCN(CC(=O)NC1CCS(=O)(=O)C1)S(=O)(=O)c1c(C)c(C)cc(C)c1C (configuration not stated),inactive,
CCCC(=O)Nc1ccc2nn(-c3ccc(OC)cc3)nc2c1,"inconclusive: 35.5 µM [inhibitor, single point]",
CCOc1ccc(NC(=O)C(C)N2C(=O)c3ccccc3S2(=O)=O)cc1 (configuration not stated),"inconclusive: 1.26 µM [inhibitor, single point]",
COc1ccc(/C=N/n2cc(-c3ccc(OC)cc3)nc2N)cc1,inactive,
NC(=Nc1ccccc1)NC(=O)c1nc(Cl)c(N)nc1N,"inconclusive: 2.31 µM [activator, partial curve]",
COc1ccc(S(=O)(=O)NCc2ccccn2)cc1NC(=O)c1ccc(C)cc1,"inconclusive: 0.794 µM [inhibitor, partial curve, poor fit]",
O=C(Nc1ccc(Oc2c(F)c(F)c(F)c(F)c2F)cc1)OC1CCN2Cc3ccccc3N=C12 (configuration not stated),"inconclusive: 28.2 µM [inhibitor, partial curve, poor fit]",
Clc1ccc(-c2cnc3ccccc3n2)cc1,"inconclusive: 4.47 µM [activator, single point]",
Cc1c(CCC(=O)N[C@@H](CCCNC(N)=O)C(=O)O)c(=O)oc2cc3oc4c(c3cc12)CCCC4,"inconclusive: 1.26 µM [inhibitor, full curve, poor fit]",
Cc1cc(-c2c(C)[nH]n(-c3ccccc3)c2=O)n[nH]1,"inconclusive: 35.5 µM [inhibitor, single point]",
CCOc1ccc(/C=N/NC(=O)c2c(C)n(C)c3ccc(OC)cc23)cc1,"inconclusive: 35.5 µM [inhibitor, single point]",
COc1cccc(Nc2nc3cc(C)ccc3nc2NS(=O)(=O)c2ccc(Cl)cc2)c1,"inconclusive: 7.08 µM [inhibitor, partial curve]",
Cc1cc(O)c(C(C)C)cc1NS(=O)(=O)c1ccccc1,inactive,
COc1ccc(Cl)cc1N(CC(=O)NCCSc1ccccn1)S(=O)(=O)c1ccccc1,"inconclusive: 12.6 µM [inhibitor, partial curve, poor fit]",

# Another view of some results above:
Structure (SMILES)	Potency	activity change, negative = inhibition
Fc1ccc(/C=C2\CCCC3=C2Nc2ncnn2C3c2ccc(F)cc2)cc1 (configuration not stated)	inconclusive: 10 µM [inhibitor, partial curve, poor fit]	
O=c1c2ccccc2n2c(=S)[nH]nc2n1-c1ccccc1	inconclusive: 2.82 µM [inhibitor, partial curve, poor fit]	
COc1ccc2c(C)c(CC(=O)NCCc3ccc(Cl)cc3)c(=O)oc2c1C	inactive	
Cc1cccc(N(C(=O)c2snc(C(N)=O)c2N)C(C(=O)NCC2CCCO2)c2cccs2)c1 (configuration not stated)	inconclusive: 16.4 µM [inhibitor, single point]	

# Source: PubChem BioAssay AID540256 (National Center for Advancing Translational Sciences (NCATS), 2011)
